# Measurements: paper PMC6926483
# No constants are given. Whether binding was seen depends on the method and setting. In cells and extracts the contact can be indirect. Some entries that bind do so weakly or less than the wild type. Where a sequence is shown, tags or fusion partners need not be part of it.
# T1: HA-GluD1 (glutamate receptor delta-1, wild type) (mouse), Q61627
# T1 chain: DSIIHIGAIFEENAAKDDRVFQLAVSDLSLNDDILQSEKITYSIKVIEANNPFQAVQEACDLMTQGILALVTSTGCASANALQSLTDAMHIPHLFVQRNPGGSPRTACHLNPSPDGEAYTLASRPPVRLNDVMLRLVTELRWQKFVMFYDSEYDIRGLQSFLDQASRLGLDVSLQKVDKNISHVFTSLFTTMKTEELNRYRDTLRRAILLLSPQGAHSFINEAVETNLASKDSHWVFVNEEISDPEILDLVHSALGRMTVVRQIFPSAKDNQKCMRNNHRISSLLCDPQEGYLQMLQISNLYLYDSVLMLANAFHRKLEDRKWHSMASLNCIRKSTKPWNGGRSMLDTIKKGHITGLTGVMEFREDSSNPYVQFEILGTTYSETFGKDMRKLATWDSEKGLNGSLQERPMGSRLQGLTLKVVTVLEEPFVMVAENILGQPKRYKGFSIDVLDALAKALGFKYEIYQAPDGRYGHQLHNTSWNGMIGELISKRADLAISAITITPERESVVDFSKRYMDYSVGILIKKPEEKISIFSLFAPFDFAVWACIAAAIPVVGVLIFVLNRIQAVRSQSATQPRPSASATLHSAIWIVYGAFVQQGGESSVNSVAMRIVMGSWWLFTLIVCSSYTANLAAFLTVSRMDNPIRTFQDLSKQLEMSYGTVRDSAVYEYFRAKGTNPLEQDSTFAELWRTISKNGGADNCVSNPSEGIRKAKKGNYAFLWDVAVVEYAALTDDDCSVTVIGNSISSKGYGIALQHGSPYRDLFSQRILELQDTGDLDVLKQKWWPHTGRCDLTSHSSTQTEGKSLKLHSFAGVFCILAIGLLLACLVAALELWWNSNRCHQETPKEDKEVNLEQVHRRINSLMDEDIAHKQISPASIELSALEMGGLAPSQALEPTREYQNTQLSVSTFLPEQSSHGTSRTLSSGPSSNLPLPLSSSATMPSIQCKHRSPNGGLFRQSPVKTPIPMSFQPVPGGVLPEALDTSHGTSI
# Target: T1, HA-GluD1 (glutamate receptor delta-1, …)
# Test: co-IP; transfected HEK cells; 1 mg total protein in NP-40 buffer (1% Igepal, 50 mM Tris pH 7.4, 150 mM NaCl, 2 mM EDTA); overnight at 4°C with mouse anti-HA or mouse anti-Myc antibody, mouse IgG as negative control; protein G-agarose; washes with 200 mM NaCl; western blot
# Conditions: remark: other sources report otherwise
binder,measurement,value
"Myc-Cbln4 (cerebellin-4), Q8BME9 25-198 (ligand) QNDTEPIVLEGKCLVVCDSNPATDSKGSSSSPLGISVRAANSKVAFSAVRSTNHEPSEMSNKTRIIYFDQILVNVGNFFTLESVFVAPRKGIYSFSFHVIKVYQSQTIQVNLMLNGKPVISAFAGDKDVTREAATNGVLLYLDKEDKVYLKLEKGNLLGGWQYSTFSGFLVFPL",binding,binds
